Measured values taken from US20180320217A1, “METHODS FOR SAMPLING AND MEASURING ORAL LAVAGE PROTEINS” (The Procter & Gamble Company, priority 2017, published 2018).

B1: Cathepsin F (protein, UniProt Q9UBX1 271-484, looked up)
Cathepsin F: APPEWDWRSKGAVTKVKDQGMCGSCWAFSVTGNVEGQWFLNQGTLLSLSEQELLDCDKMDKACMGGLPSNAYSAIKNLGGLETEDDYSYQGHMQSCNFSAEKAKVYINDSVELSQNEQKLAAWLAKRGPISVAINAFGMQFYRHGISRPLRPLCSPWLIDHAVLLVGYGNRSDVPFWAIKNSWGTDWGEKGYYYLHRGSGACGVNTMASSAVVD
B2: Calpain I (protein, UniProt P07384 2-714; P04632 1-268, looked up)
Calpain-1 catalytic subunit: SEEIITPVYCTGVSAQVQKQRARELGLGRHENAIKYLGQDYEQLRVRCLQSGTLFRDEAFPPVPQSLGYKDLGPNSSKTYGIKWKRPTELLSNPQFIVDGATRTDICQGALGDCWLLAAIASLTLNDTLLHRVVPHGQSFQNGYAGIFHFQLWQFGEWVDVVVDDLLPIKDGKLVFVHSAEGNEFWSALLEKAYAKVNGSYEALSGGSTSEGFEDFTGGVTEWYELRKAPSDLYQIILKALERGSLLGCSIDISSVLDMEAITFKKLVKGHAYSVTGAKQVNYRGQVVSLIRMRNPWGEVEWTGAWSDSSSEWNNVDPYERDQLRVKMEDGEFWMSFRDFMREFTRLEICNLTPDALKSRTIRKWNTTLYEGTWRRGSTAGGCRNYPATFWVNPQFKIRLDETDDPDDYGDRESGCSFVLALMQKHRRRERRFGRDMETIGFAVYEVPPELVGQPAVHLKRDFFLANASRARSEQFINLREVSTRFRLPPGEYVVVPSTFEPNKEGDFVLRFFSEKSAGTVELDDQIQANLPDEQVLSEEEIDENFKALFRQLAGEDMEISVKELRTILNRIISKHKDLRTKGFSLESCRSMVNLMDRDGNGKLGLVEFNILWNRIRNYLSIFRKFDLDKSGSMSAYEMRMAIESAGFKLNKKLYELIITRYSEPDLAVDFDNFVCCLVRLETMFRFFKTLDTDLDGVVTFDLFKWLQLTMFA
Calpain small subunit 1: MFLVNSFLKGGGGGGGGGGGLGGGLGNVLGGLISGAGGGGGGGGGGGGGGGGGGGGTAMRILGGVISAISEAAAQYNPEPPPPRTHYSNIEANESEEVRQFRRLFAQLAGDDMEVSATELMNILNKVVTRHPDLKTDGFGIDTCRSMVAVMDSDTTGKLGFEEFKYLWNNIKRWQAIYKQFDTDRSGTICSSELPGAFEAAGFHLNEHLYNMIIRRYSDESGNMDFDNFISCLVRLDAMFRAFKSLDKDGTGQIQVNIQEWLQLTMYS
B3: CD209 antigen (protein, UniProt Q9NNX6 1-404, looked up)
CD209 antigen: MSDSKEPRLQQLGLLEEEQLRGLGFRQTRGYKSLAGCLGHGPLVLQLLSFTLLAGLLVQVSKVPSSISQEQSRQDAIYQNLTQLKAAVGELSEKSKLQEIYQELTQLKAAVGELPEKSKLQEIYQELTRLKAAVGELPEKSKLQEIYQELTWLKAAVGELPEKSKMQEIYQELTRLKAAVGELPEKSKQQEIYQELTRLKAAVGELPEKSKQQEIYQELTRLKAAVGELPEKSKQQEIYQELTQLKAAVERLCHPCPWEWTFFQGNCYFMSNSQRNWHDSITACKEVGAQLVVIKSAEEQNFLQLQSSRSNRFTWMGLSDLNQEGTWQWVDGSPLLPSFKQYWNRGEPNNVGEEDCAEFSGNGWNDDKCNLAKFWICKKSAASCSRDEEQFLSPAPATPNPPPA
B4: Carbohydrate sulfotransferase 15 (protein, UniProt Q7LFX5 1-561, looked up)
Carbohydrate sulfotransferase …: MRHCINCCIQLLPDGAHKQQVNCQGGPHHGHQACPTCKGENKILFRVDSKQMNLLAVLEVRTEGNENWGGFLRFKKGKRCSLVFGLIIMTLVMASYILSGAHQELLISSPFHYGGFPSNPSLMDSENPSDTKEHHHQSSVNNISYMKDYPSIKLIINSITTRIEFTTRQLPDLEDLKKQELHMFSVIPNKFLPNSKSPCWYEEFSGQNTTDPYLTNSYVLYSKRFRSTFDALRKAFWGHLAHAHGKHFRLRCLPHFYIIGQPKCGTTDLYDRLRLHPEVKFSAIKEPHWWTRKRFGIVRLRDGLRDRYPVEDYLDLFDLAAHQIHQGLQASSAKEQSKMNTIIIGEASASTMWDNNAWTFFYDNSTDGEPPFLTQDFIHAFQPNARLIVMLRDPVERLYSDYLYFASSNKSADDFHEKVTEALQLFENCMLDYSLRACVYNNTLNNAMPVRLQVGLYAVYLLDWLSVFDKQQFLILRLEDHASNVKYTMHKVFQFLNLGPLSEKQEALMTKSPASNARRPEDRNLGPMWPITQKILRDFYRPFNARLAQVLADEAFAWKTT
B5: Cathepsin S (protein, UniProt P25774 115-331, looked up)
Cathepsin S: LPDSVDWREKGCVTEVKYQGSCGACWAFSAVGALEAQLKLKTGKLVSLSAQNLVDCSTEKYGNKGCNGGFMTTAFQYIIDNKGIDSDASYPYKAMDQKCQYDSKYRAATCSKYTELPYGREDVLKEAVANKGPVSVGVDARHPSFFLYRSGVYYEPSCTQNVNHGVLVVGYGDLNGKEYWLVKNSWGHNFGEEGYIRMARNKGNHCGIASFPSYPEI
B6: Cadherin-5 (protein, UniProt P33151 48-784, looked up)
Cadherin-5: DWIWNQMHIDEEKNTSLPHHVGKIKSSVSRKNAKYLLKGEYVGKVFRVDAETGDVFAIERLDRENISEYHLTAVIVDKDTGENLETPSSFTIKVHDVNDNWPVFTHRLFNASVPESSAVGTSVISVTAVDADDPTVGDHASVMYQILKGKEYFAIDNSGRIITITKSLDREKQARYEIVVEARDAQGLRGDSGTATVLVTLQDINDNFPFFTQTKYTFVVPEDTRVGTSVGSLFVEDPDEPQNRMTKYSILRGDYQDAFTIETNPAHNEGIIKPMKPLDYEYIQQYSFIVEATDPTIDLRYMSPPAGNRAQVIINITDVDEPPIFQQPFYHFQLKENQKKPLIGTVLAMDPDAARHSIGYSIRRTSDKGQFFRVTKKGDIYNEKELDREVYPWYNLTVEAKELDSTGTPTGKESIVQVHIEVLDENDNAPEFAKPYQPKVCENAVHGQLVLQISAIDKDITPRNVKFKFILNTENNFTLTDNHDNTANITVKYGQFDREHTKVHFLPVVISDNGMPSRTGTSTLTVAVCKCNEQGEFTFCEDMAAQVGVSIQAVVAILLCILTITVITLLIFLRRRLRKQARAHGKSVPEIHEQLVTYDEEGGGEMDTTSYDVSVLNSVRRGGAKPPRPALDARPSLYAQVQKPPRHAPGAHGGPGEMAAMIEVKKDEADHDGDGPPYDTLHIYGYEGSESIAESLSSLGTDSSDSDVDYDFLNDWGPRFKMLAELYGSDPREELLY
B7: CD166 antigen (protein, UniProt Q13740 28-583, looked up)
CD166 antigen: WYTVNSAYGDTIIIPCRLDVPQNLMFGKWKYEKPDGSPVFIAFRSSTKKSVQYDDVPEYKDRLNLSENYTLSISNARISDEKRFVCMLVTEDNVFEAPTIVKVFKQPSKPEIVSKALFLETEQLKKLGDCISEDSYPDGNITWYRNGKVLHPLEGAVVIIFKKEMDPVTQLYTMTSTLEYKTTKADIQMPFTCSVTYYGPSGQKTIHSEQAVFDIYYPTEQVTIQVLPPKNAIKEGDNITLKCLGNGNPPPEEFLFYLPGQPEGIRSSNTYTLTDVRRNATGDYKCSLIDKKSMIASTAITVHYLDLSLNPSGEVTRQIGDALPVSCTISASRNATVVWMKDNIRLRSSPSFSSLHYQDAGNYVCETALQEVEGLKKRESLTLIVEGKPQIKMTKKTDPSGLSKTIICHVEGFPKPAIQWTITGSGSVINQTEESPYINGRYYSKIIISPEENVTLTCTAENQLERTVNSLNVSAISIPEHDEADEISDENREKVNDQAKLIVGIVVGLLLAALVAGVVYWLYMKKSKTASKHVNKDLGNMEENKKLEENNHKTEA
B8: Coactosin-like protein (protein, UniProt Q14019 2-142, looked up)
Coactosin-like protein: ATKIDKEACRAAYNLVRDDGSAVIWVTFKYDGSTIVPGEQGAEYQHFIQQCTDDVRLFAFVRFTTGDAMSKRSKFALITWIGENVSGLQRAKTGTDKTLVKEVVQNFAKEFVISDRKELEEDFIKSELKKAGGANYDAQTE
B9: CD83 antigen (protein, UniProt Q01151 20-205, looked up)
CD83 antigen: TPEVKVACSEDVDLPCTAPWDPQVPYTVSWVKLLEGGEERMETPQEDHLRGQHYHQKGQNGSFDAPNERPYSLKIRNTTSCNSGTYRCTLQDPDGQRNLSGKVILRVTGCPAQRKEETFKKYRAEIVLLLALVIFYLTLIIFTCKFARLQSIFPDFSKAGMERAFLPVTSPNKHLGLVTPHKTELV

Test system: proteins in oral lavage
Assay: Abundance of proteins in human oral lavage (SomaLogic), TABLE 1
Type: in vivo
Details: for Means (Original Scale) High bleeder BL / Means (Original Scale) High bleeder W4 / Means (Original Scale) Low bleeder BL: abundance in oral lavage; for Means (Original Scale) High bleeder BL: high bleeders (gingivitis); for Means (Original Scale) High bleeder BL / Means (Original Scale) Low bleeder BL: baseline; for Means (Original Scale) High bleeder W4 / Fold Change High bleeder W4 vs High bleeder BL: high bleeders; for Means (Original Scale) High bleeder W4: week 4 of investigative products; for Means (Original Scale) Low bleeder BL: low bleeders (healthy); for Fold Change High bleeder BL vs Low bleeder BL / Fold Change High bleeder W4 vs High bleeder BL: oral lavage; for Fold Change High bleeder BL vs Low bleeder BL: high bleeders vs low bleeders at baseline; for Fold Change High bleeder W4 vs High bleeder BL: week 4 of investigative products vs baseline

Molecule	Means (Original Scale) High bleeder BL	Means (Original Scale) High bleeder W4	Means (Original Scale) Low bleeder BL	Fold Change High bleeder BL vs Low bleeder BL	Fold Change High bleeder W4 vs High bleeder BL
B1	8192	3442	1136	4.94	0.59
B2	112397	50592	25144	5.97	0.51
B3	262	176	76	3.22	0.70
B4	713	348	71	8.61	0.60
B5	18016	9075	2396	7.16	0.65
B6	1720	807	252	5.83	0.53
B7	7301	4033	2616	2.50	0.61
B8	2271	1213	512	3.84	0.60
B9	130	78	52	2.28	0.66
